Experimental findings from publication PMC12561399 are described below.

These are yes or no findings as the source states them, for the method shown. Binding seen in cells or lysates may run through a third protein. Here binding means that the protein was enriched with, or labelled near, the bait; the list need not be complete.

The assay concerns the target T1, periostin (POSTN) (mouse (endogenous in mouse TDSCs and mouse tendon tissue)) (UniProt Q62009).
T1 sequence: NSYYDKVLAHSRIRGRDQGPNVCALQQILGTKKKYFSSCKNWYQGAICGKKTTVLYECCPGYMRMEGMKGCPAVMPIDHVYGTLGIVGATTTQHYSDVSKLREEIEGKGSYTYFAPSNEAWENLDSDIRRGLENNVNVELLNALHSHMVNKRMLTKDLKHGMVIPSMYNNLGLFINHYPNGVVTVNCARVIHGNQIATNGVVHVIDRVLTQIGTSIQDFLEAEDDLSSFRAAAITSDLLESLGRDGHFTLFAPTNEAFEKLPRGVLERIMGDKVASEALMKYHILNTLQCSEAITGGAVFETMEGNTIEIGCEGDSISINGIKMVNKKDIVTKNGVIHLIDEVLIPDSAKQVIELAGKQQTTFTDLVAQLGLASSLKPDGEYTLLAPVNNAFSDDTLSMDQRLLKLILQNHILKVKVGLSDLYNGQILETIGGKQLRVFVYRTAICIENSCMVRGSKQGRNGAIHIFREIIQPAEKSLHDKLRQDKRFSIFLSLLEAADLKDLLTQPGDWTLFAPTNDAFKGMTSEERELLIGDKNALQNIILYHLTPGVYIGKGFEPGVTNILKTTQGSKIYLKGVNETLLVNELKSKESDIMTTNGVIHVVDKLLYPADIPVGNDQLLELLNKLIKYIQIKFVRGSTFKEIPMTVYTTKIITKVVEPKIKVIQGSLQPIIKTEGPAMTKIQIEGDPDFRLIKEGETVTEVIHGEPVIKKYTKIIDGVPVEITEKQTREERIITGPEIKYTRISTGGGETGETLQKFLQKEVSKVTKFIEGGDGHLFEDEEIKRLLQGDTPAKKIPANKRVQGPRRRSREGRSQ
In words: affinity purification with mass spectrometry; molecules binding to POSTN in sham versus tendon injury (HO model) tissue at 7 days, N = 3; ranked by Score Sequest HT; how POSTN was isolated is not told.

B1: Protein Tyrosine Kinase 7 (PTK7) (receptor, UniProt Q8BKG3 23-1062)
chain: AIVFIKEPSSQDALQGRRALLRCEVEAPDPVHVYWLLNGVPVQDTERRFAQGSSLSFAAVDRLQDSGAFQCVARDNVTGEEVRSTNASFNIKWIEAGPVVLKHPASEAEIQPQTQVTLRCHIDGHPRPTYQWFRDGTPLSDDQSTHTVSSRERNLTLRPASPEHSGLYSCCAHNAFGQACSSQNFTLSVADESFARVVLAPQDVVVARNEEAMFHCQFSAQPPPSLQWVFEDETPITNRSRPPHLRRAVVFANGSLLLTQVRPRNAGVYRCIGQGQRGPPIVLEATLHLAEIEDMLPFEPRVFIAGDEERVTCPAPQGLPTPSVWWEHAGVPLPAHGRVHQKGLELVFVTIAESDTGVYTCHASNLAGQRRQDVNITVATVPTWLRKPQDSQLEEGKPGYLHCLTQATPKPTVIWYRNQMLISEDSRFEVSKNGTLRINSVEVYDGTLYRCVSSTPAGSIEAQARVQVLEKLKFTPPPQPQQCMEFDKEATVPCSATGREKPTVKWVRADGSSLPEWVTDNAGTLHFARVTRDDAGNYTCIASNEPQGQIRAHVQLTVAVFITFKVEPERTTVYQGHTALLRCEAQGDPKPLIQWKGKDRILDPTKLGPRMHIFQNGSLVIHDVAPEDSGSYTCIAGNSCNIRHTEAPLLVVDKPVMEDSEGPGSPPPYKMIQTIGLSVGAAVAYIIAVLGLMFYCKKRCKAKRLQKQPEGEEPEMECLNGGPLQNGQPSAEIQEEVALTSLGSGPPATNKRHSAGDRMHFPRASLQPITTLGKSEFGEVFLAKAQGVEEGATETLVLVKSLQSRDEQQQLDFRREVEMFGKLNHANVVRLLGLCREAEPHYMVLEYVDLGDLKQFLRISKNKDEKLKSQPLSTKQKVALCSQVALGMEHLSNNRFVHKDLAARNCLISAQRQVKVSALGLSKDVYNSEYYHFRQAWVPLRWMSPEAVLEGDFSTKSDVWAFGVLMWEVFTHGEMPHGGQADDEVLADLQAGKARLPQPEGCPSKLYRLMQRCWAPNPKDRPSFSEIASTLGDSPADSKQ
Turning to B1, the binding entry is listed as “binds”.
